According to USRE35044E, “Cyanine compounds” (Asahi Chemical Co., Ltd., priority 1987, dated 1995):

Assays:
[1] = Test for optimum recording power; conditions: 780 nm, 1.2 m/s, 450 kHz; CN ratio at least 45 dB, error rate up to 50 cps; listed as Dye of Prep. Ex. 11
Procedure: Information was recorded on a photosensitive recording medium formed using each of the cyanine dyes shown below in Table 1 by irradiation of semiconductor laser beams at 780 nm at a recording power of 0.2 mW, a liner velocity of 1.2 m/s and a frequency of 450 kHz and the recorded information was reproduced at a reproducing power of 0.2 mW. The optimum recording power is one at which errors occur at the lowest frequency (CN ratio of at least 45 dB and error rate of up to 50 cps) when the recording is reproduced at varying recording powers of from 2.0 to 8.0 mW and the recorded information was reproduced by irradiation of semiconductor laser beams at 780 nm at a reproducing power of 0.2 mW.

[2] = Test for reflectivity and absorptivity (dye coating on acrylic resin plate, semiconductor laser beam 780 nm); conditions: coating 600 to 700 Å thick on acrylic resin plate
Procedure: Each of cyanine dyes as shown below in Table 1 was dissolved in dichloromethane to a concentration of 20 g/l. The solution was applied to an acrylic resin plate by a spin coater rotated at 1500 rpm to form a layer of 600 to 700 Å thickness, and the coating was dried. The reflectivity and absorptivity of the coating were measured by irradiation of semiconductor laser beam at 780 nm over the coating surface.

For `CCCCN1C(=CC=CC=CC2=[N+](CCCC)c3cc(OC)c(OC)cc3C2(C)C)C(C)(C)c2cc(OC)c(OC)cc21` [Preparation Example 11], the Optimum recording power [1] was 2.9 mW.
For `COCCN1C(=CC=CC=CC2=[N+](CCOC)c3c(OC)cc(OC)cc3C2(C)C)C(C)(C)c2cc(OC)cc(OC)c21` [Preparation Example 14], the Absorptivity [2] was 19%.
